Measured values reported in PubChem BioAssay AID504847 (National Center for Advancing Translational Sciences (NCATS), 2011).
Where “and” joins values, the source holds several entries; their conditions need not be identical. Identical values can stand only once. About 3,700 (0.93%) of roughly 400,000 compounds were called active. This list was built around the results that the source calls inconclusive (neither active nor inactive); the mix of calls is not that of the screen. The call rests on the fitted dose curve; in most records, active means well fitted inhibition curve with a large enough effect; inconclusive means small, poorly fitted or top-dose-only effect, or another doubt; inactive means no such curve, though single readings can be large or run the other way. Potencies beside an inconclusive call are fits to weak or partial responses and may not hold up. A structure can be active in one record and inactive in another.

The chains behind the UniProt entries cited, without tags or fusion partners. Where a name states a change or a piece, a line headed by the entry shows the natural chain unless it says otherwise.
UniProt P11473: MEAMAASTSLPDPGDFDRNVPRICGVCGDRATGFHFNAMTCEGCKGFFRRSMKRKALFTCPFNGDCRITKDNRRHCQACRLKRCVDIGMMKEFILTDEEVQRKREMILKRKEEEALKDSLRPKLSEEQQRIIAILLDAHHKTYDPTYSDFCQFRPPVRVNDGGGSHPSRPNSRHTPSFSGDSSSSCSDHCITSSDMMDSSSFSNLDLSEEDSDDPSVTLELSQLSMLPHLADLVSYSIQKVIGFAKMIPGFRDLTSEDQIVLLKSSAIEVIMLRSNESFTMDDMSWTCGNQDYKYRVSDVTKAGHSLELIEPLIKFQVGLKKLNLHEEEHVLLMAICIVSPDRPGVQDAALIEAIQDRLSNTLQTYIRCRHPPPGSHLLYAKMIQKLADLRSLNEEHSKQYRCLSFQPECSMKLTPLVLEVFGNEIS

target: Vitamin D3 receptor (Homo sapiens) (UniProt P11473); test: Inhibitors of the vitamin D receptor (VDR): qHTS; settings: VDR-SRC2-3 peptide fluorescence polarization, 2 h; max response, negative = inhibition: active compounds read low
How it was run: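 FP read-out; VDR + SRC2-3 coactivator peptide; 23 nl compound by pintool; 2 h RT incubation; reagents held at 4 deg C, protected from light.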
On the % scale 0 is the no-effect control and ±100 the full control effect; potency means the concentration at half of the fitted maximal effect.

Structure (SMILES) | max response, negative = inhibition | Potency
CCc1cc(=O)oc2c(C)c(OCC(=O)NCCCn3ccnc3)ccc12 | inactive: 18.7% | –
COc1ccc(/C=C/C(=O)c2ccc(O)cc2O)cc1OC | – | inconclusive: 35.5 µM [inhibitor, partial curve]
CNC(=O)/C(C#N)=C/c1cccc(Oc2ccccc2)c1 | – | inconclusive: 79.4 µM [inhibitor, partial curve, poor fit]
CCN(Cc1ccncc1)C(=O)c1cc(COc2c(F)cccc2F)on1 | – | inconclusive: 15.8 µM [inhibitor, partial curve, poor fit]
COc1c2ccoc2nc2c(OC)c(O)ccc12 | inactive: -10% | –
O=C(NCCCN1CCOCC1)C(=O)N/N=C/c1c2ccccc2cc2ccccc12 | inactive: -8.27% | –
CCC(C)N=Cc1c(Nc2ccccc2)nc2c(C)cccn2c1=O (stereo not drawn) | – | inconclusive: 10 µM [inhibitor, partial curve, poor fit]
N#C/C(C(=O)Nc1ccc(Cl)cc1)=C(/S)Nc1ccccc1 | – | inconclusive: 28.2 µM [inhibitor, full curve, poor fit]
Cc1ccc(S(=O)(=O)/N=C(/NC(=S)Nc2ccccc2)c2ccccc2)cc1 | inactive: -25.2% | –
CC(=O)c1ccc(N2CCN(C(=O)CCCc3nc4ccccc4s3)CC2)cc1 | inactive: 4.33% | –
Cc1noc(NS(=O)(=O)c2ccc(NC(=O)CSc3nc4ccccc4s3)cc2)c1C | – | inconclusive: 79.4 µM [inhibitor, partial curve]
COc1cccc(S(=O)(=O)Nc2ccc(C(=O)Nc3ccncc3)cc2)c1 | inactive: -24.5% | –
Cc1ccc(N2NC(C)(c3cccs3)NC2=S)cc1 (stereo not drawn) | – | inconclusive: 100 µM [inhibitor, single point]
O=C(Nc1cccc(F)c1)C1CCN(C(=O)c2ccc(Cl)cc2)CC1 | – | inconclusive: 89.1 µM [inhibitor, partial curve, poor fit]
O=C(CSc1nncc2ccccc12)Nc1ccc(C(=O)O)cc1 | – | inconclusive: 44.7 µM [inhibitor, partial curve]
Cc1nc(NC(=O)COC(=O)/C=C/c2ccco2)c(Cl)cc1Cl | – | inconclusive: 100 µM [inhibitor, single point]
COC(=O)c1ccc(-n2c(CCC(=O)O)ccc2-c2ccc(C)cc2)cc1 | – | inconclusive: 56.2 µM [inhibitor, partial curve, poor fit]
CC1(C)CC(=O)C2=C(C1)OC(N)=C(C#N)C2C#Cc1ccccc1 (stereo not drawn) | – | active: 44.7 µM
Cc1cc2nc3ccc(N(C)C)cc3nc2cc1N | – | active: 79.4 µM
Cc1ccc(O)c(C(=O)/C=C/c2ccc3c(c2)OCCO3)c1 | – | inconclusive: 56.2 µM [inhibitor, partial curve, poor fit]
O=C(Nc1cc(S(=O)(=O)N2CCOCC2)ccc1OCC(F)(F)F)c1ccc(N2CCCC2=O)cc1 | – | inconclusive: 79.4 µM [inhibitor, partial curve]
S=C(c1nc2ccccc2[nH]1)N1CCOCC1 | – | inconclusive: 89.1 µM [inhibitor, single point]
CC(C)c1nc2scc(-c3ccc(Cl)cc3)c2c(=O)n1N | – | inconclusive: 89.1 µM [inhibitor, single point]

Structure (SMILES) | max response, negative = inhibition | Potency
O=C(O)c1ccc(N2CC3CC(C2)c2cccc(=O)n2C3)c(NC(=S)Nc2ccc(Br)cc2)c1 (stereo not drawn) | – | inconclusive: 89.1 µM [inhibitor, single point]
CCCCc1ncc(CN2CCC(n3nccc3NC(=O)c3ccccc3OC)CC2)[nH]1 | – | inconclusive: 39.8 µM [inhibitor, single point]
COc1ccc(C2C(C#N)=C(N)Oc3cc(N)ccc32)cc1 (stereo not drawn) | inactive: -5.58% | –
CCCCc1nc2cc(C(=O)N3CCCCC3CCNC(C)=O)ccc2o1 (stereo not drawn) | – | inconclusive: 31.6 µM [inhibitor, single point]
COc1ccc(CCNC(=O)CCCCn2c(=O)c3ccccc3n(Cc3ccccc3C)c2=O)cc1OC | inactive: 7.91% | –
COc1ccc(OC)c(NC(=O)c2cc3cc(C)ccc3n2C)c1 | inactive: 9.55% | –
Cc1c(Cc2ccccc2)sc(NC(=O)/C=C/c2cccc3ccccc23)c1C(N)=O | – | inconclusive: 44.7 µM [inhibitor, partial curve]
Cc1c(Cl)cccc1NC(CC(=O)c1ccccc1)C(=O)OCC(=O)c1cccs1 (stereo not drawn) | – | inconclusive: 100 µM [inhibitor, single point]
Cc1ccc(-c2nc3cnccn3c2Nc2c(C)cccc2C)o1 | – | inconclusive: 70.8 µM [inhibitor, partial curve] and inconclusive: 89.1 µM [inhibitor, partial curve, poor fit]
Cn1cccc1C(=O)N1CCC2(CCN(Cc3ccccc3)CC2)CC1 | inactive: -1.85% | –
CCOC(=O)c1c(C)[nH]c(C(=O)COC(=O)COc2ccccc2C=O)c1C | – | inconclusive: 50.1 µM [inhibitor, partial curve, poor fit]
COc1ccc(CCNC(=O)Cn2c(=O)nc(-c3ccccc3)c3ccccc32)cc1OC | inactive: 6.42% | –
Cc1cccc(OCCSc2nc(N)cc(N)n2)c1 | – | inconclusive: 25.1 µM [inhibitor, partial curve, poor fit]
N#CC(C#N)=C(N)/C(C#N)=C/c1cc(O)c(O)c(O)c1 | – | active: 39.8 µM
Cc1ccc(NS(=O)(=O)c2ccc3[nH]c(=O)oc3c2)c(C)c1 | – | inconclusive: 39.8 µM [inhibitor, single point]
Cc1ccc(Oc2nc3ccccn3c(=O)c2/C=C(\C#N)C(=O)NC2CCS(=O)(=O)C2)cc1 (stereo not drawn) | – | active: 79.4 µM
O=C(Nc1ccccc1Br)c1ccccc1-c1ccccc1 | inactive: -9.5% | –
CCOc1ccc(/C=C2\SC(=S)N(CC(=O)NCCCN3CCOCC3)C2=O)cc1 | inactive: 3.82% | –
CCn1cc(C(=O)O)c(=O)c2cnc(N3CCN(C(=S)NC(=O)c4ccc(Cl)cc4)CC3)nc21 | inactive: 3.03% | –
CC(C)(C)OC(=O)NCc1ccc(CNC(=O)c2nc[nH]c2C(=O)N2CCN(C(=O)OC(C)(C)C)CC2)cc1 | inactive: 11.6% | –
CCc1nn2c(=O)cc(COC(=O)c3cccc(NC(=O)COc4ccccc4F)c3)nc2s1 | inactive: 9.47% | –
Cc1cc(NC(=O)CSc2nnnn2-c2ccc(C)c(Cl)c2)no1 | inactive: 63.2% | –
COc1ccccc1N1CCN(CC(=O)c2c(C)[nH]c3cc(C)ccc23)CC1 | inactive: 4.12% | –

Structure (SMILES) | max response, negative = inhibition | Potency
O=C(Nc1cc(Cl)ccc1-n1cncn1)c1cc(F)c(F)c(F)c1F | – | inconclusive: 89.1 µM [inhibitor, single point]
O=C1c2cccc3cccc(c23)C(=O)N1CCN1CCN(CC(O)COc2ccc3ccccc3c2)CC1 (stereo not drawn) | inactive: -6.47% | –
COc1cccc(-c2nc(S(=O)(=O)c3ccc(C)cc3)c(NCc3ccccc3)o2)c1 | – | inconclusive: 89.1 µM [inhibitor, single point]
Oc1c(Br)cc(Br)cc1/C=N/c1nc2c(s1)CCCC2 | – | inconclusive: 56.2 µM [inhibitor, partial curve, poor fit]
O=C(Nc1ccc2nc3n(c(=O)c2c1)CCCC3)c1cc([N+](=O)[O-])ccc1F | – | inconclusive: 70.8 µM [inhibitor, single point]
Cc1ccc(N/N=C/c2ccncc2)cc1 | inactive: 32.6% | –
O=C(O)CCn1cc(/C=C/C(=O)c2ccc(Cl)cc2)c(-c2cccc(Br)c2)n1 | – | active: 15.8 µM
Cc1ccc(NC(=O)CN2C(=O)S/C(=C\c3cc(C)n(C)c3C)C2=O)cc1 | inactive: 7.43% | –
O=C(O)COc1ccc(/C=N/NC(=O)/C(=C/C=C/c2ccccc2)NC(=O)c2ccccc2)cc1 | – | inconclusive: 63.1 µM [inhibitor, partial curve, poor fit]
COc1ccc(-n2nc3c(c2NC(=O)C(=O)NCc2ccccc2)CSC3)cc1 | inactive: 23.4% | –
Cc1ccc(-c2csc(=S)[nH]2)cc1 | – | inconclusive: 79.4 µM [inhibitor, single point]
COc1ccc(Nc2nc(-c3cccs3)cs2)cc1 | – | inconclusive: 70.8 µM [inhibitor, single point]
Cc1ccc(CN2C(=O)C(=O)c3cc(C)ccc32)cc1 | – | inconclusive: 50.1 µM [inhibitor, partial curve]
N#C/C(=C\c1ccccc1[N+](=O)[O-])c1nc(C2CC2)cs1 | – | inconclusive: 100 µM [inhibitor, single point]
OC[C@@H]1[C@@H](c2ccccc2)C(c2ccccc2)=NN1c1ccccc1 | – | inconclusive: 100 µM [inhibitor, partial curve, poor fit]
CCOC(=O)CC1OC(=O)c2cc3c(cc21)C(=O)OC3CC(=O)OCC (stereo not drawn) | – | inconclusive: 70.8 µM [inhibitor, single point]
O=C(O)CCc1ccc(-c2ccccc2)o1 | – | active: 20 µM
C=CCN1C(=O)C2(NC(=O)c3ccccc3N2)c2ccccc21 (stereo not drawn) | inactive: -3.97% | –
CCCCCCC(=O)N1C/C=C\C(c2ccc(OC)cc2)N(Cc2ccc(F)cc2)C(=O)C1 (stereo not drawn) | – | inconclusive: 79.4 µM [inhibitor, partial curve, poor fit]
CCOC(=O)c1sc2ncn(CC(=O)Nc3cc(C)cc(C)c3)c(=O)c2c1C | inactive: -2.89% | –
COc1ccccc1NC(=O)COC(=O)c1ccc2c(c1)OCCO2 | – | inconclusive: 89.1 µM [inhibitor, single point]
C/C=C/c1ccc(OCC(=O)Nc2ccc(OC)c(OC)c2)c(OC)c1 | – | inconclusive: 89.1 µM [inhibitor, partial curve, poor fit]
